Results are given in words; binding and its absence hold for the method and conditions named. Binding seen in cells or lysates may run through a third protein. Some binding calls cover weakened binding; strength is not graded here.
Molecular target: T1, endogenous perilipin 5 (Plin5) of mouse primary hepatocytes (mouse (endogenous in primary hepatocytes)) (UniProt Q8BVZ1)
T1 sequence: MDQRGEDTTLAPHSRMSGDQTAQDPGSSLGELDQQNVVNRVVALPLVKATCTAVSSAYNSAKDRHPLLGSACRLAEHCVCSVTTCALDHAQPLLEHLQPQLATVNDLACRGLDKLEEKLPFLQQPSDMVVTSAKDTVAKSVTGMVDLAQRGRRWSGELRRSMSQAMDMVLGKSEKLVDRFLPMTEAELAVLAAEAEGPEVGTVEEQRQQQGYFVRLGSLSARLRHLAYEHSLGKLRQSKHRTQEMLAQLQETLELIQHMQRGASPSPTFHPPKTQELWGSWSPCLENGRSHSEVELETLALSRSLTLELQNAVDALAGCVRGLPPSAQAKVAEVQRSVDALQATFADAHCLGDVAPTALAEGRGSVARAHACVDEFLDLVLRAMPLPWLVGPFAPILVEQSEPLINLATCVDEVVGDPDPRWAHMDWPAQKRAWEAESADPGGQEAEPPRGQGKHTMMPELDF
Assay: co-IP; wild-type and Plin5-null mouse primary hepatocytes infected with NS5A adenovirus; endogenous Plin5 immunoprecipitated with anti-Plin5 antibody; NS5A detected by immunoblot with anti-HA

Sequences of proteins named here, by UniProt entry; tags and fusion partners are left off. Residues count along the entry.
UniProt P27958, residues 1973-2420: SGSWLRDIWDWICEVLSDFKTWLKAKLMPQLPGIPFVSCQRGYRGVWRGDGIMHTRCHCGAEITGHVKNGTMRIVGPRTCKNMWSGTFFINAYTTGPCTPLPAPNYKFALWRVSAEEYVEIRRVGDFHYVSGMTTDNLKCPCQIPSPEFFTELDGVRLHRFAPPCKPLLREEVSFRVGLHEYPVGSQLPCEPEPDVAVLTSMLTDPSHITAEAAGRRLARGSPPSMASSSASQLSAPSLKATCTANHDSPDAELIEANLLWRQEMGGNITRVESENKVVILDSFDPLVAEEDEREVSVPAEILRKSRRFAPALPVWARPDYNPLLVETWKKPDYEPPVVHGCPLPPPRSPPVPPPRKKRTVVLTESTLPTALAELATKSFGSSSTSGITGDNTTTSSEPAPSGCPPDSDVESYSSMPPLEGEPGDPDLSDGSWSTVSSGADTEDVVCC

HA-tagged HCV non-structural protein 5A (NS5A), expressed from adenovirus (Ad-NS5A) in mouse primary hepatocytes (from UniProt P27958 1973-2420)
binding: binds

— PMC6451786
